System: SMN2-luciferase reporter
Experiment: SMN2-luciferase reporter assay (clonal HEK-293 SMN2-luc cells)
Assay type: cell-based, human
Protocol: The reporter cell lines were plated at 50,000 cells per well in 96-well plates and incubated overnight. Compounds were added to each well and incubated at 37° C. overnight. The final DMSO concentration was 0.1%. Luciferase activity was assayed using either STEADYGLO (PROMEGA E2510) or DUALGLO (PROMEGA E2920) luciferase using the WALLAC ENVISION multilabel reader. For detailed assay conditions see Table 2A. All data points were transformed from CPS to percent increase over basal expression in the treated control wells (DMSO or H2O as appropriate).
Plates were sealed with porous paper tape and incubated for 24 hours. […] For comparison, data points were transformed from CPS to percent activation over basal expression in the DMSO treated control wells.
For comparison, all data points are expressed as percent increase over basal luciferase expression in the control cells.

EC50 (Homo sapiens, HEK293, cell-based reporter, known SMN2 modulating compounds): 12 µM
SMILES: O=C(CCCCCCC(=O)Nc1ccccc1)NO [SAHA, suberoylanilide hydroxamic acid]
Max. fold increase (cell-based reporter response to known SMN2 modulating compounds): 15 fold
